PubChem BioAssay AID1224828, NIAID, 2016

Assay: 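Knock-downs that increase or decrease LPS-induced p65 nuclear translocation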 (primary screen)
Cells: mouse RAW264.7 G9 macrophage reporter cells (GFP-p65, Tnf promoter-mCherry)
Reagents: siRNA pool against mouse genes, 100 nM
Duration: 2 days siRNA transfection, then 40 min LPS before fixation
Conditions: LPS (Salmonella minnesota R595) at 10 ng/ml
Measured: 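Microscopy ratio of nuclear to perinuclear-ring GFP-p65 signal, scaled to the plate median; gene score is the average of two replicate robust z-scores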
Direction: p65 translocation robust z-score: higher = more nuclear NF-kappaB p65 after LPS than the plate median; nuclear/cytoplasmic p65 ratio: higher = more nuclear NF-kappaB p65
Hit rule: 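Called active when z exceeds 3.3 or falls under -1.56 (median of Tlr4 controls), giving activity score of at least 50; no calls for control wells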
Calls: active = hit (p65 shift raised or lowered); inactive = no clear change
The whole screen tested about 17,000 reagents; this is a part drawn at random. Of all reagents, 762 (4.5%) got an active call. 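Active calls include both raised and lowered p65 entry, mostly lowered; wells with fewer than 50 cells lack a z-score.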 Raw values vary from plate to plate and are shown uncorrected. Reagent sequences are not shown.

For Cst13 the deposit lists p65 translocation robust z-score 2.08; nuclear/cytoplasmic p65 ratio, rep 1 = 1.58; nuclear/cytoplasmic p65 ratio, rep 2 = 1.69; low cell count flag enough cells to score; inactive.
Knock-down of Magohb resulted in: nuclear/cytoplasmic p65 ratio, rep 1 = 1.39; nuclear/cytoplasmic p65 ratio, rep 2 = 1.16; low cell count flag fewer than 50 cells per well; well left out of scoring; inactive.
After knock-down of Rspo4, the screen gave p65 translocation robust z-score -0.16; nuclear/cytoplasmic p65 ratio, rep 1 = 1.33; nuclear/cytoplasmic p65 ratio, rep 2 = 1.54; low cell count flag enough cells to score; inactive.
Against Kcmf1, the entry reads p65 translocation robust z-score -1.18; nuclear/cytoplasmic p65 ratio, rep 1 = 1.35; nuclear/cytoplasmic p65 ratio, rep 2 = 1.3; low cell count flag enough cells to score; inactive.
After knock-down of Bnc1 the results were p65 translocation robust z-score -0.57; nuclear/cytoplasmic p65 ratio, rep 1 = 1.57; nuclear/cytoplasmic p65 ratio, rep 2 = 1.49; low cell count flag enough cells to score; inactive.
Against Plbd1 the deposit lists p65 translocation robust z-score 2.28; nuclear/cytoplasmic p65 ratio, rep 1 = 1.92; nuclear/cytoplasmic p65 ratio, rep 2 = 1.7; low cell count flag enough cells to score; inactive.
After knock-down of Plpp5 the results were p65 translocation robust z-score -0.44; nuclear/cytoplasmic p65 ratio, rep 1 = 1.48; nuclear/cytoplasmic p65 ratio, rep 2 = 1.61; low cell count flag enough cells to score; inactive.
Silencing of Gpc1 came out at: nuclear/cytoplasmic p65 ratio, rep 1 = 1.09; nuclear/cytoplasmic p65 ratio, rep 2 = 1.34; low cell count flag fewer than 50 cells per well; well left out of scoring; inactive.
Depletion of Med14 gave: p65 translocation robust z-score -0.14; nuclear/cytoplasmic p65 ratio, rep 1 = 1.48; nuclear/cytoplasmic p65 ratio, rep 2 = 1.22; low cell count flag enough cells to score; inactive.
Armc8 showed p65 translocation robust z-score -0.14; nuclear/cytoplasmic p65 ratio, rep 1 = 1.58; nuclear/cytoplasmic p65 ratio, rep 2 = 1.61; low cell count flag enough cells to score; inactive.
Igf2bp2 showed p65 translocation robust z-score -0.59; nuclear/cytoplasmic p65 ratio, rep 1 = 1.57; nuclear/cytoplasmic p65 ratio, rep 2 = 1.48; low cell count flag enough cells to score; inactive.
With knock-down of Ndufa13, the screen gave p65 translocation robust z-score -0.07; nuclear/cytoplasmic p65 ratio, rep 1 = 1.58; nuclear/cytoplasmic p65 ratio, rep 2 = 1.58; low cell count flag enough cells to score; inactive.
